We go through 38 targets from the supplement of paper PMC10849652.

Amino acid sequences for entries named in this document (tags omitted). A change or cut given only in a name is not applied to a line headed by its entry.
UniProt Q8IW92: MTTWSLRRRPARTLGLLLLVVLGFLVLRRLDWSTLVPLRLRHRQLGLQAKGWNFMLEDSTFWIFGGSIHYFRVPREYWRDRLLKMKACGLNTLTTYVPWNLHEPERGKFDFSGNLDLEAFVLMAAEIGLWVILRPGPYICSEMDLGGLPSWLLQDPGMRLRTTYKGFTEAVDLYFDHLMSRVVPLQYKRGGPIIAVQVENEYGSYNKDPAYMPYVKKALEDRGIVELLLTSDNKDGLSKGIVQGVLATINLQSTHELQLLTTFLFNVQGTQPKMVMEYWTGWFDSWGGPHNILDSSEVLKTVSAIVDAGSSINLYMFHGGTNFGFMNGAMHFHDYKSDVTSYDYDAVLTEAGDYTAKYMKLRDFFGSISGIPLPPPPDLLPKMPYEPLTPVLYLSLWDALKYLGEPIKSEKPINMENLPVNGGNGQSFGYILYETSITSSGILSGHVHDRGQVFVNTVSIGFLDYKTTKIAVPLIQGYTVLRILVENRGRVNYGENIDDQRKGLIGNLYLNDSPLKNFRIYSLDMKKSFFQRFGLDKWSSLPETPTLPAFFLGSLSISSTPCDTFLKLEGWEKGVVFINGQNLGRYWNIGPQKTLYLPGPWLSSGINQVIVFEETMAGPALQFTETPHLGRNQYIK
UniProt P32189: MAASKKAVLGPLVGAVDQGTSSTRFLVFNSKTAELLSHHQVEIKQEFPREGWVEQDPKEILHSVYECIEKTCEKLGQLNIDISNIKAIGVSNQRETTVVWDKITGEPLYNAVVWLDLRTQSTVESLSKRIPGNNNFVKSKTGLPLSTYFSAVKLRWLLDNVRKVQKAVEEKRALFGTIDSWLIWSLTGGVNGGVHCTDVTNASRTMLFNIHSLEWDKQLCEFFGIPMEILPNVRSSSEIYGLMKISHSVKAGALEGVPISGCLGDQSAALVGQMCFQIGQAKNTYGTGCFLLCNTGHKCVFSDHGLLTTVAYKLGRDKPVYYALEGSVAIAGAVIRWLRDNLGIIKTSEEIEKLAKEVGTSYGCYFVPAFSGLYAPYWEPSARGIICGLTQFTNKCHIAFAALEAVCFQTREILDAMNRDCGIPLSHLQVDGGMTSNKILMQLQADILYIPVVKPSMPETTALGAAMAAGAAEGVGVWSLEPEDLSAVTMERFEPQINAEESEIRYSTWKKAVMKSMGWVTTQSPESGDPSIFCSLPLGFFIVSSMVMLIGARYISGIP
UniProt P36959: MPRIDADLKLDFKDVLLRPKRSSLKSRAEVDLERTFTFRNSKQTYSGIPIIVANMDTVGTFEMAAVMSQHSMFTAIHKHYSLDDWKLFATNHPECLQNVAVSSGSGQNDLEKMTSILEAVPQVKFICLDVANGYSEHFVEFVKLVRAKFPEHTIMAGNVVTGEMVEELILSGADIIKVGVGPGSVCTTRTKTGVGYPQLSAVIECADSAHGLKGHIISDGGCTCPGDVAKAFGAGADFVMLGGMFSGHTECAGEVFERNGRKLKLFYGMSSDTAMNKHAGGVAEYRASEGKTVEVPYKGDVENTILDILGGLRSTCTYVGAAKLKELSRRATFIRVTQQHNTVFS
UniProt Q14749: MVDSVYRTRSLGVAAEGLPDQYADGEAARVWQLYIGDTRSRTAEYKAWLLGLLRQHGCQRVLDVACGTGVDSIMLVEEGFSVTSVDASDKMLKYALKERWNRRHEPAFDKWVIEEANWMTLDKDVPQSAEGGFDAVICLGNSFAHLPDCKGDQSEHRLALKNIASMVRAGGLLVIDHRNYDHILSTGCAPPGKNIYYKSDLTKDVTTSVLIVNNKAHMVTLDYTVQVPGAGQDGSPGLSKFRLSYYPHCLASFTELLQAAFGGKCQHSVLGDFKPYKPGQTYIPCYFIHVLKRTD
UniProt Q96IJ6: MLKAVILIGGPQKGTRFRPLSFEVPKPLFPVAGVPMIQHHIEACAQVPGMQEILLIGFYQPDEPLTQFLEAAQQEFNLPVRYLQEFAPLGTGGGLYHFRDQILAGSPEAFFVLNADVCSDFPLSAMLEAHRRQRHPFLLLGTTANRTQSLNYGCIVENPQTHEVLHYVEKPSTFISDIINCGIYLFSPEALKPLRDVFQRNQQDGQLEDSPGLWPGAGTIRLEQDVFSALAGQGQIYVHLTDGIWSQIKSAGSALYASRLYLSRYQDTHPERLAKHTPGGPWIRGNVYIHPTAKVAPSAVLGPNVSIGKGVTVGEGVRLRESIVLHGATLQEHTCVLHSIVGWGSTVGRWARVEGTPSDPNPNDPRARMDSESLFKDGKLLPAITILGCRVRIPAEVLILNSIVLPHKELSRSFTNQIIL
UniProt P00505: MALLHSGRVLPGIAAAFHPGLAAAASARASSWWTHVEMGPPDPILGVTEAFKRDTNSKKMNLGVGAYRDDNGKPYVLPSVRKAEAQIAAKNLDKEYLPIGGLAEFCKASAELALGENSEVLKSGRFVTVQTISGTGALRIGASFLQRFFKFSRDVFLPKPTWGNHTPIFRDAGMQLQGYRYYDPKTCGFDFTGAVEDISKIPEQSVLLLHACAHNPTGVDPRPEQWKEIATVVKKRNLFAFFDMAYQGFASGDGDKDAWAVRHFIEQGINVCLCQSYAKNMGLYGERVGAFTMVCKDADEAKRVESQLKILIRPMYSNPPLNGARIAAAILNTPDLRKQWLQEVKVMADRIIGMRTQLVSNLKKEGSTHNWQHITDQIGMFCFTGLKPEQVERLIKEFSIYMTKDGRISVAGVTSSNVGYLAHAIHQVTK
UniProt Q03113, whole entry, looked up: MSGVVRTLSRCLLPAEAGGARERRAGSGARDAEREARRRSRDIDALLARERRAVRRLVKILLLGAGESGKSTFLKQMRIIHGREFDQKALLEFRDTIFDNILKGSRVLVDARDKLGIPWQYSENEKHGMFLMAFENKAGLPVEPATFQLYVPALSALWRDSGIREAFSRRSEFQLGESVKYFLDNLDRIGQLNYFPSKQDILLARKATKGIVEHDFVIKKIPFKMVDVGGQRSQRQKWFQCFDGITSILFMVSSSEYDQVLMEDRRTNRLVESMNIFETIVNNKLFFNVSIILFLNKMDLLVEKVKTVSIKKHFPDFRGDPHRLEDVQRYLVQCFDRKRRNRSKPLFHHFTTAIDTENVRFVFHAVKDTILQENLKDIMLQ
UniProt O14653: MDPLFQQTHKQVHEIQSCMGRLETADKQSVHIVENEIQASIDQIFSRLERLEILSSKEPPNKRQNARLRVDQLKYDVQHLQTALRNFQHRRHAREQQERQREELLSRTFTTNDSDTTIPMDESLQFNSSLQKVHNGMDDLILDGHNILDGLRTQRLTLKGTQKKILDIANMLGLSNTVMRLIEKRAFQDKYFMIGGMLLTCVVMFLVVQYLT
UniProt Q92896: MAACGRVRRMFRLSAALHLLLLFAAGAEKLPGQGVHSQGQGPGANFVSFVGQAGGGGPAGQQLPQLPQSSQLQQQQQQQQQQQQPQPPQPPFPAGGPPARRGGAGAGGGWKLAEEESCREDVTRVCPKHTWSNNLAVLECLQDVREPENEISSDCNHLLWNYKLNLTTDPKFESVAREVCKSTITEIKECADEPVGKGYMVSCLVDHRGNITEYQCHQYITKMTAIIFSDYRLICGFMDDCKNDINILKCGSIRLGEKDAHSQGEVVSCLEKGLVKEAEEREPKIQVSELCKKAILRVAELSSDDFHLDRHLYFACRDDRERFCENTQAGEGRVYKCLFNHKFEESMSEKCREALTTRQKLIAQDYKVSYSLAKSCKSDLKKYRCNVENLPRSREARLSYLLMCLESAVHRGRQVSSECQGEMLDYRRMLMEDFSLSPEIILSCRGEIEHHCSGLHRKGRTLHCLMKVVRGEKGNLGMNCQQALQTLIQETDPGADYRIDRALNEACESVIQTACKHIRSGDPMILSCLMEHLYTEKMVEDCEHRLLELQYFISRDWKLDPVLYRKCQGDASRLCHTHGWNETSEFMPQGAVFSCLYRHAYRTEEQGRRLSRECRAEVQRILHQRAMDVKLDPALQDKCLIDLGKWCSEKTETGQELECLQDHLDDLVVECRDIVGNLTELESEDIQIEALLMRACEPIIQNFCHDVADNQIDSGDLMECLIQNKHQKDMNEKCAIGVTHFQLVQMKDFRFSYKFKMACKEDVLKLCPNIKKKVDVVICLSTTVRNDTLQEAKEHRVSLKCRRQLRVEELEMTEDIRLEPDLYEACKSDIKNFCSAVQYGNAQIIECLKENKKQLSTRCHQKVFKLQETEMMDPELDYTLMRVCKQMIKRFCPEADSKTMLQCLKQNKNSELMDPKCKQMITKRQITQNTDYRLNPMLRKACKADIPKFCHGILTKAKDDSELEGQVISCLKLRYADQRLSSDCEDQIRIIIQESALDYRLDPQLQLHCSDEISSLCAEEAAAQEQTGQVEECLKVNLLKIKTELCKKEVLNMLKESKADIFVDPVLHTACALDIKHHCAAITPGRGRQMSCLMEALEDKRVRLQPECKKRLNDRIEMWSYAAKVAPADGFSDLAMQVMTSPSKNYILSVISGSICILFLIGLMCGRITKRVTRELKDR
UniProt Q9BRR8: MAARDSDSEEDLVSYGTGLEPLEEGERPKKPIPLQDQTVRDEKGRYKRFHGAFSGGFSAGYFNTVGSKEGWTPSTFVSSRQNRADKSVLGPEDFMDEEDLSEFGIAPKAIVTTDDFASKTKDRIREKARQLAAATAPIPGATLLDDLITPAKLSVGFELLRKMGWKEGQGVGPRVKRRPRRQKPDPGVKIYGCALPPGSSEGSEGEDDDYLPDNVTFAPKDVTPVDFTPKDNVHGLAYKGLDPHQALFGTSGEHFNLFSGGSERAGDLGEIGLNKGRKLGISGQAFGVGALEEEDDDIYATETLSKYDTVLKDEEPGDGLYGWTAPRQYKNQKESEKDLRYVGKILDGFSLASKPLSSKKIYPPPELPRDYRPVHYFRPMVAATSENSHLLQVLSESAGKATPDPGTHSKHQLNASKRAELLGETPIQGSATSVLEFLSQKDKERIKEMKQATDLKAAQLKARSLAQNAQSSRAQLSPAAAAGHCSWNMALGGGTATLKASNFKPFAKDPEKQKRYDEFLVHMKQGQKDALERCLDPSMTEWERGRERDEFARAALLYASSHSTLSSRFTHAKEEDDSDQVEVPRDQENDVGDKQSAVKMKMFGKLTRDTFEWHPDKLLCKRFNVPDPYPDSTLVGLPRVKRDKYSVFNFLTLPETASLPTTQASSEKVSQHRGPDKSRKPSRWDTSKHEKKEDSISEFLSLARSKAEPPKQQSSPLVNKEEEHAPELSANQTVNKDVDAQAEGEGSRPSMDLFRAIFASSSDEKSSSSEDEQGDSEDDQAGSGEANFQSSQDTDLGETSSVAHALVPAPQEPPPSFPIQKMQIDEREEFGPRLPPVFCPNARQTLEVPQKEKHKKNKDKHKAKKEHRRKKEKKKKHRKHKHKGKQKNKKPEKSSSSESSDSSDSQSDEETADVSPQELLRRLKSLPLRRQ
UniProt P43304: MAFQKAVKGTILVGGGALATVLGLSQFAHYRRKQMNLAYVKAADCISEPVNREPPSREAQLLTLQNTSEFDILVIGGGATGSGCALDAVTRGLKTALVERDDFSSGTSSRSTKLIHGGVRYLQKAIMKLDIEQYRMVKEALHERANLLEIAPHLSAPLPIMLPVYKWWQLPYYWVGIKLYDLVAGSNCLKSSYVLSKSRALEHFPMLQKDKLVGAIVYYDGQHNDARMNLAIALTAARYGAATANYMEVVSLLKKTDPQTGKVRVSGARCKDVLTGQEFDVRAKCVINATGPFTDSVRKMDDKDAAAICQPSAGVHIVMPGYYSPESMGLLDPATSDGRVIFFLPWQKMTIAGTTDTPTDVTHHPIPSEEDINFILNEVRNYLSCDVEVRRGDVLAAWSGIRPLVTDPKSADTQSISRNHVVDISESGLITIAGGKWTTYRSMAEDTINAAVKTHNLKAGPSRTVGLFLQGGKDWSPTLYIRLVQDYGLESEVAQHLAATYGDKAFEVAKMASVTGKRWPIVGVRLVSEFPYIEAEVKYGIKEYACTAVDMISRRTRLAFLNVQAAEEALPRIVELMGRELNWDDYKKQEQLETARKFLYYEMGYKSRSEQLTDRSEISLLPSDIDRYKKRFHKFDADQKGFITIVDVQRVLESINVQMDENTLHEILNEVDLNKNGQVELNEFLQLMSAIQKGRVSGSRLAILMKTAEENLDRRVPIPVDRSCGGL
UniProt Q53EU6: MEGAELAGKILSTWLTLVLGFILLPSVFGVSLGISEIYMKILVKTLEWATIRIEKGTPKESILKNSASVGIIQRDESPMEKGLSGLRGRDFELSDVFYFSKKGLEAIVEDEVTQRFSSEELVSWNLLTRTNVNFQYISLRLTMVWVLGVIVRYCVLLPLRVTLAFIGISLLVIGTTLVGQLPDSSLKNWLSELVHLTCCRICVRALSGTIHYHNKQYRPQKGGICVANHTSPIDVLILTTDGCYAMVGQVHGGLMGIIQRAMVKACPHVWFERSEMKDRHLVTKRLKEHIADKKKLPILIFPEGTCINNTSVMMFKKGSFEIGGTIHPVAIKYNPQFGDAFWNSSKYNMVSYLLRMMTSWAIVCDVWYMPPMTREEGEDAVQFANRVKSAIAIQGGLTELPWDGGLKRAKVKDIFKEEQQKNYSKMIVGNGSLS

The list shows a part of the results.

Compound in the first assay: CN1CC[C@H](c2c(O)cc(O)c3c(=O)cc(-c4ccccc4Cl)oc23)[C@H](O)C1 [alvocidib]
Kind of assay: log2 fold change, soluble protein after heating vs DMSO (PISA); higher = thermal stabilisation; K562 cells, 10 uM, 30 min; active = over 0.2 and 3.5 SD of the protein, either way, in both replicates (recomputed). An outline of the steps: (§1)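 Thermal stability values are relative to control samples and come from duplicates. They are expressed as log2 fold changes. For measurement, K562 cells (2×10^6 cells/mL) received 10 μM compound for 30 min, and aliquots were heated for 3 min over 48°C-58°C, pooled, and extracted at 4°C in PBS with 0.5% NP-40. Soluble protein, the supernatant after 21,000xg for 90 min, was quantified by TMTpro 16plex LC-MS/MS with equalised channel sums.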
Take GNA13 (UniProt Q14344): the log2 fold change was inactive: -0.024.
Same read-out and setting: with GLB1L2 (UniProt Q8IW92) the figure was inactive: 0.026.
Same read-out and setting: the value for GK (UniProt P32189) was inactive: 0.018; that for GPHN isoform 2 (UniProt Q9NQX3) was inactive: -0.033.
On the same count and under the same terms, with GNPNAT1 (UniProt Q96EK6) the figure was inactive: -0.033; with GMPR (UniProt P36959), inactive: -0.007.
In the case of GNMT (UniProt Q14749), the log2 fold change was inactive: -0.267.
On the same count and under the same terms, the value for GMDS (UniProt O60547) was inactive: -0.005; that for GNPDA2 (UniProt Q8TDQ7) was inactive: -0.096; that for GPBP1L1 (UniProt Q9HC44) was inactive: 0.025.
The same measure, in the same setting: with GM2A (UniProt P17900) the figure was inactive: 0.063; with GMPPA (UniProt Q96IJ6), inactive: -0.014.
Still for that read-out and setting: the value for GOLGA5 (UniProt Q8TBA6) was inactive: 0.018; that for GRIPAP1 (UniProt Q4V328) was inactive: -0.015.
As to GRPEL1 (UniProt Q9HAV7), the log2 fold change is inactive: -0.043.
The same measure, in the same setting: with GOT2 (UniProt P00505) the figure was inactive: -0.026.
Regarding GNA12 (UniProt Q03113), the log2 fold change is inactive: 0.131.
Same read-out and setting: the value for GPR107 (UniProt Q5VW38) was inactive: -0.006; that for GNPDA1 (UniProt P46926) was inactive: 0.042; that for GLO1 (UniProt Q04760) was inactive: 0.028.
Still for that read-out and setting: with GOSR1 (UniProt O95249) the figure was inactive: -0.019; with GOLGA7 (UniProt Q7Z5G4), inactive: -0.067.
GOSR2 isoform 2 (UniProt O14653): the log2 fold change is inactive: -0.056.
Same read-out and setting: with GNB1L (UniProt Q9BYB4) the figure was inactive: -0.025.
The same measure, in the same setting: the value for GLOD4 isoform 2 (UniProt Q9HC38) was inactive: -0.108; that for GPATCH11 (UniProt Q8N954) was inactive: -0.003; that for GLG1 isoform 2 (UniProt Q92896) was inactive: 0.014.
Still for that read-out and setting: the value for GPATCH1 (UniProt Q9BRR8) was inactive: -0.054.
In the case of GINS3 (UniProt Q9BRX5), the log2 fold change is inactive: -0.072.
Take GNE isoform 2 (UniProt Q9Y223): the log2 fold change is inactive: 0.024.
On the same count and under the same terms, the value for GPRIN1 (UniProt Q7Z2K8) was inactive: 0.02; that for GOT1 (UniProt P17174) was inactive: -0.01; that for GPBP1 isoform 2 (UniProt Q86WP2) was inactive: 0.025.
Same read-out and setting: the value for GPS1 isoform 7 (UniProt Q13098) was inactive: -0.055; that for GMNN (UniProt O75496) was inactive: -0.046; that for GPD2 (UniProt P43304) was inactive: 0.002.
Still for that read-out and setting: the value for GPN2 (UniProt Q9H9Y4) was inactive: 0.026.
As for GPAT3 (UniProt Q53EU6), the log2 fold change is inactive: -0.09.

Compound in a further assay: CN1CCc2c(c3ccccc3n2Cc2ccc(C(=O)NO)cc2)C1 [Tubastatin A]
Described as above. An outline of the steps:
as §1
In the case of GNA13 (UniProt Q14344), the log2 fold change was inactive: 0.034.
With GLB1L2 (UniProt Q8IW92), the log2 fold change was inactive: -0.021.
Still for that read-out and setting: the value for GK (UniProt P32189) was inactive: -0.007; that for GPHN isoform 2 (UniProt Q9NQX3) was inactive: -0.023.
The same measure, in the same setting: the value for GNPNAT1 (UniProt Q96EK6) was inactive: -0.019; that for GMPR (UniProt P36959) was inactive: -0.01.
Take GNMT (UniProt Q14749): the log2 fold change is inactive: 0.054.
Same read-out and setting: the value for GMDS (UniProt O60547) was inactive: -0.027; that for GNPDA2 (UniProt Q8TDQ7) was inactive: -0.128.
On the same count and under the same terms, with GPBP1L1 (UniProt Q9HC44) the figure was inactive: 0.006.
Same read-out and setting: the value for GM2A (UniProt P17900) was inactive: -0.009; that for GMPPA (UniProt Q96IJ6) was inactive: 0.01.
As for GOLGA5 (UniProt Q8TBA6), the log2 fold change is inactive: -0.017.
For the target GRIPAP1 (UniProt Q4V328), the log2 fold change is inactive: -0.027.
On the same count and under the same terms, the value for GRPEL1 (UniProt Q9HAV7) was inactive: 0.005; that for GOT2 (UniProt P00505) was inactive: -0.01; that for GNA12 (UniProt Q03113) was inactive: 0.019.
GPR107 (UniProt Q5VW38): the log2 fold change is inactive: -0.011.
On the same count and under the same terms, with GNPDA1 (UniProt P46926) the figure was inactive: -0.026; with GLO1 (UniProt Q04760), inactive: -0.017; with GOSR1 (UniProt O95249), inactive: -0.025.
Same read-out and setting: with GOLGA7 (UniProt Q7Z5G4) the figure was inactive: 0.055.
Same read-out and setting: the value for GOSR2 isoform 2 (UniProt O14653) was inactive: -0.026; that for GNB1L (UniProt Q9BYB4) was inactive: -0.072.
On to GLOD4 isoform 2 (UniProt Q9HC38), for which the log2 fold change was inactive: -0.017.
The same measure, in the same setting: the value for GPATCH11 (UniProt Q8N954) was inactive: -0.02.
Regarding GLG1 isoform 2 (UniProt Q92896), the log2 fold change is inactive: -0.039.
Consider GPATCH1 (UniProt Q9BRR8), for which the log2 fold change is inactive: -0.292.
Still for that read-out and setting: with GINS3 (UniProt Q9BRX5) the figure was inactive: -0.04; with GNE isoform 2 (UniProt Q9Y223), inactive: -0.019; with GPRIN1 (UniProt Q7Z2K8), inactive: -0.009.
For GOT1 (UniProt P17174), the log2 fold change was inactive: 0.003.
Same read-out and setting: the value for GPBP1 isoform 2 (UniProt Q86WP2) was inactive: 0.025.
The same measure, in the same setting: with GPS1 isoform 7 (UniProt Q13098) the figure was inactive: -0.045; with GMNN (UniProt O75496), inactive: 0.018; with GPD2 (UniProt P43304), inactive: -0.014.
Still for that read-out and setting: the value for GPN2 (UniProt Q9H9Y4) was inactive: -0.08; that for GPAT3 (UniProt Q53EU6) was inactive: 0.018.
